Hit rate of the full screen: of about 400,000 compounds, about 13,000 (3.2%) were called active. The inconclusive results got no clear call from the source; some entries with a clear call stand among them for comparison. The call rests on the fitted dose curve; in most records, active means well fitted cell-killing curve with a large enough effect; inconclusive means small, poorly fitted or top-dose-only effect, or effect the other way; inactive means flat fitted curve, though single readings scatter. A potency beside an inconclusive call is a rough fit, not a confirmed value.
Experiment: qHTS assay for MDR1-selective chemotherapeutics: Primary screen using the drug-selected MDR subline cells KB-V1; further: nearly all actives have a fitted effect of over 60% in size
Conditions: KB-V1 MDR cells viability, CellTiter-Glo, 72 h; series mostly up to 46.1 µM
Procedure, shortened: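 Cytotoxicity via CellTiter-Glo luminescence after 72 h compound exposure at 37 degrees C. Cells: drug-selected KB-V1 line, DMEM phenol-red free plus 10% FBS. Compounds tested at multiple concentrations; normalized data fitted to concentration-effect curves.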
Potency means the concentration at half of the fitted maximal effect.

| Compound | Potency |
| --- | --- |
| CCn1c(/C(C#N)=N/O)nc2ccccc21 | inconclusive: 14.6 µM [rising, partial curve] |
| Cc1cc(C)cc(N(CCC#N)C(=O)CSc2nc3nc(C)cc(C)n3n2)c1 | inconclusive: 14.6 µM [cytotoxic, partial curve] |
| Cc1ccc(NS(=O)(=O)c2cc(NC(=O)C(C)Oc3ccccc3)ccc2C)c(C)c1 (stereo not given) | active: 18.4 µM |
| COC(=O)c1sccc1NC(=O)CN(C)NS(=O)(=O)c1ccc([N+](=O)[O-])cc1 | inconclusive: 13 µM [cytotoxic, partial curve] |
| O=C(Cc1ccccc1)NCCS(=O)(=O)N1CCN(c2ccccc2)CC1 | inconclusive: 20.6 µM [cytotoxic, partial curve, poor fit] |
| Cc1cccc(Cn2c(-c3cccs3)nc3ccccc32)c1 | inconclusive: 8.2 µM [cytotoxic, partial curve] |
| CC(=O)C1=C(O)C(=O)N(CCc2c[nH]c3ccccc23)C1c1ccc(C)cc1 (stereo not given) | inconclusive: 29.1 µM [rising, single point] |
| Cn1c(=O)c2c(nc(SCC(=O)Nc3ccc(F)cc3)n2Cc2ccc(Cl)cc2)n(C)c1=O | inconclusive: 3.66 µM [cytotoxic, partial curve, poor fit] |
| O=C(NCc1cccnc1)c1ccc(COc2ccc(Cl)cc2Cl)o1 | inactive |
| COc1ccc(S(=O)(=O)N2CCCCCC2)cc1N(C)S(=O)(=O)c1ccccc1 | inconclusive: 10.3 µM [cytotoxic, partial curve] |
| CSc1cccc(NC(=O)C2CCN(S(=O)(=O)c3ccc(F)cc3)CC2)c1 | inactive |
| CSc1nnc(NC(=O)c2nc(S(=O)(=O)Cc3ccc(C)cc3)ncc2Cl)s1 | inconclusive: 29.1 µM [cytotoxic, single point] |
| CC1=C(C(=O)N(C(C)C)C(C)C)CC(CC(=O)NC(c2ccccc2)c2ccccc2)C(=O)N1Cc1ccc(C(C)(C)C)cc1 (stereo not given) | inconclusive: 29.1 µM [cytotoxic, single point] |
| COc1ccccc1NS(=O)(=O)c1cc(NC(=O)c2ccc(NC(C)=O)cc2)ccc1N1CCOCC1 | inconclusive: 20.6 µM [cytotoxic, partial curve] |
| Cc1ncc([N+](=O)[O-])n1CCN1C(=O)c2ccccc2C1=O | inconclusive: 18.4 µM [rising, partial curve, poor fit] |
| COc1ccccc1OCCC(=O)OCC(=O)c1[nH]c(C)c(C(C)=O)c1C | inconclusive: 8.2 µM [cytotoxic, partial curve, poor fit] |
| Nc1c(Cl)cc(C2=NCCn3c2c2ccc([N+](=O)[O-])cc2[n+]3[O-])cc1Cl | inconclusive: 20.6 µM [cytotoxic, single point] |
| CCOc1cc(CNC2CCCC2)ccc1OCc1ccccc1Cl | active: 20.6 µM |
| Cc1cc(N=Cc2c(O)n(-c3ccc4c(c3)OCO4)c(=O)c3ccccc23)ccn1 | inconclusive: 8.2 µM [cytotoxic, partial curve, poor fit] |
| NC(=O)Cn1c(=O)n(-c2ccc(F)c(Cl)c2)c(=O)c2sc3ccccc3c21 | inactive |
| Cc1cccn2c(=O)c3cc(C#N)c(=O)n(Cc4cccnc4)c3nc12 | inactive |
| Cc1ccc2c(c1)C1(SCCS1)C(=O)N2 | inconclusive: 29.1 µM [cytotoxic, partial curve, poor fit] |
| CC(Cc1cccnc1)NC(=O)c1ccccc1OC1CCN(S(C)(=O)=O)CC1 (stereo not given) | inconclusive: 7.31 µM [rising, partial curve, poor fit] |
| COc1ccc(N(C(=O)c2ccc3c(c2)OCO3)C2C=CS(=O)(=O)C2)c(OC)c1 (stereo not given) | inconclusive: 9.2 µM [rising, partial curve] |

| Compound | Potency |
| --- | --- |
| Cc1ccc(C)c(S(=O)(=O)N2CCCOC2CNC(=O)C(=O)NCc2ccco2)c1 (stereo not given) | active: 23.1 µM |
| O=[N+]([O-])c1ccc(Sc2cccc3cccnc23)c([N+](=O)[O-])c1 | inactive |
| CCc1ccc(-c2cc(C(=O)N/N=C/c3ccccn3)[nH]n2)cc1 | inactive |
| O=C(OCCN1CCCCC1)c1ccc(Cl)cc1 | inactive |
| CN(CC(=O)N1CCN(c2ccccn2)CC1)S(=O)(=O)c1ccccc1 | inconclusive: 16.4 µM [cytotoxic, partial curve, poor fit] |
| Cc1cccc2cc(CN(Cc3cccs3)S(=O)(=O)c3ccc4c(c3)OCCO4)c(=O)[nH]c12 | active: 5.17 µM |
| Cc1ccc(C(=O)NNC(=O)C2CCN(C(=O)OC(C)(C)C)CC2)cc1 | inactive |
| COc1cc(CN(C)c2ncnc3sccc23)ccc1OC(F)F | active: 8.2 µM |
| CCCN(C(=O)Cn1cnc2sc(C)c(S(=O)(=O)N3CCN(c4ncccn4)CC3)c2c1=O)c1cccc(C)c1 | inactive |
| CCNC(=O)C1(C)CCCN(Cc2ccc(Oc3ccccc3)cc2)C1 (stereo not given) | inconclusive: 23.1 µM [cytotoxic, partial curve, poor fit] |
| CN(C)S(=O)(=O)c1ccc(N2CCCC2)c(C(=O)NCC2COc3ccccc3O2)c1 (stereo not given) | inconclusive: 5.8 µM [cytotoxic, full curve] |
| CC1CCCCN1S(=O)(=O)c1ccc(C(=O)Nc2nnc(-c3ccco3)o2)cc1 (stereo not given) | active: 5.8 µM |
| O=C(Nc1ccc(N2CCCCC2)c(Cl)c1)c1ccc(N2CCOCC2)c([N+](=O)[O-])c1 | inconclusive: 3.66 µM [cytotoxic, full curve] |
| COc1ccc(-c2nc(NC(=O)c3nc4nccc(C)n4n3)sc2C)cc1 | inconclusive: 6.51 µM [cytotoxic, full curve] |
| CCOC(=O)C1C(=O)CC(C)(O)C(C(=O)OCC)C1c1ccc(N(CC)CC)cc1 (stereo not given) | inactive |
| CC(C)(C)OC(=O)C[C@H]1C/C=C\C[C@@H](CC(=O)N(CCO)Cc2ccccc2)C(=O)N2CCC[C@H]2COC1=O | inconclusive: 0.366 µM [rising, partial curve] |
| COc1ccccc1/C=C1\SC(=S)N(CCC(=O)NNC(=O)c2ccccc2O)C1=O | inconclusive: 18.4 µM [cytotoxic, partial curve, poor fit] |
| O=C(Nc1cccnc1)c1cccc(S(=O)(=O)N2CCc3ccccc32)c1 | active: 10.3 µM |
| O=C(CSc1cc(Cl)ccc1Cl)NC1CCCc2ccccc21 (stereo not given) | inactive |
| COc1ccc(NS(=O)(=O)c2ccc3c(c2)oc(=O)n3C)cc1Cl | inconclusive: 0.82 µM [rising, full curve, poor fit] |
| Cc1onc(-c2c(Cl)cccc2Cl)c1C(=O)N1CCCc2ccccc21 | inactive |
| CC(C)=CCn1c2ccc(NC(=O)Nc3cccnc3)cc2c(=O)n1C | inactive |
| COc1ccc(/C=N/Nc2nc(N3CCCC3)nc(N3CCCC3)n2)c(OC)c1OC | inactive |
| CS(=O)(=O)N1CCCC(c2nc(-c3ccc(S(=O)(=O)NCc4ccccc4)cc3)no2)C1 (stereo not given) | active: 3.26 µM |

| Compound | Potency |
| --- | --- |
| Cn1cc(SCC(=O)NC2CCCC2)c2ccccc21 | inactive |
| O=C1Nc2ccccc2C1C(C[N+](=O)[O-])c1ccccc1 (stereo not given) | inactive |
| COc1ccc(OC)c(S(=O)(=O)Nc2ccc3[nH]c(=O)[nH]c3c2)c1 | inconclusive: 8.2 µM [rising, partial curve] |
| COc1ccc(C(=O)On2c(-c3ccc(Br)cc3)nc3ccccc3c2=O)cc1 | inconclusive: 20.6 µM [cytotoxic, single point] |
| COc1ccc(S(=O)(=O)N2CCCC(C(=O)N3CCN(C)CC3)C2)cc1Cl (stereo not given) | inconclusive: 16.4 µM [cytotoxic, partial curve, poor fit] |
| O=C(CN1CCc2ccccc2C1)Nc1ccccc1C(F)(F)F | inactive |
| Cc1csc(NC(=O)CSc2nnc(-c3ccoc3C)n2CCc2ccccc2)n1 | inconclusive: 9.2 µM [cytotoxic, partial curve] |
| COc1ccccc1N1CCN(Cc2cc(OC)c3c(c2)OCO3)CC1 | inactive |
| CSCCC(NC(=O)c1cccc(C)c1)C(=O)NCc1cccs1 (stereo not given) | inactive |
| Cc1ccc(S(=O)(=O)N2CCN(C(=O)CSc3ncn[nH]3)CC2)cc1 | inactive |
| Cc1oc(-c2ccccc2Cl)nc1CS(=O)(=O)CC(=O)NC(C)CCc1ccccc1 (stereo not given) | inactive |
| COc1cc(C)c2ccccc2n1 | inconclusive: 20.6 µM [cytotoxic, single point] |
| COc1ccc(CN2CN=C(Nc3nc4ccccc4s3)NC2)cc1 | active: 4.61 µM |
| COc1ccc(OC)c(NC(=O)C(NS(=O)(=O)c2ccc3c(c2)CCCC(=O)N3)C(C)C)c1 (stereo not given) | inconclusive: 25.9 µM [rising, single point] |
| CCOC(=O)c1cc[nH]c1C | inactive |
| O=C(COC(=O)c1ncc(Cl)c(Cl)c1Cl)NC1CCS(=O)(=O)C1 (stereo not given) | inconclusive: 32.6 µM [rising, single point] |
| O=C(c1ccc(Cl)cc1)N1CCC(O)(CSc2ccc(Cl)cc2Cl)CC1 | inconclusive: 20.6 µM [cytotoxic, partial curve, poor fit] |
| COC(=O)c1ccc(NC(=S)NC(=O)c2cc(-c3ccccc3)nc3ccccc23)cc1 | inactive |
| CN(C)CC(C)(C)CNC(C(=O)Nc1ccc(Cl)cc1C(F)(F)F)c1ccccc1 (stereo not given) | inconclusive: 7.31 µM [cytotoxic, partial curve] |
| CCOC(=O)C1CCCN(C(=O)CN2C(=O)/C(=C/c3ccc(OC)cc3)Oc3ccccc32)C1 (stereo not given) | active: 16.4 µM |
| Cc1ccc2nc(Cl)c3cc(C(=O)NC4CCCCC4)sc3c2c1 | inconclusive: 20.6 µM [rising, single point] |
| COc1ccccc1NC(=O)C1CCCN(c2nc(C)cc(C)n2)C1 (stereo not given) | inconclusive: 25.9 µM [cytotoxic, partial curve, poor fit] |

Given bar-delimited: part of the list above.
Compound | Potency
O=C(Cc1ccccc1)NCCS(=O)(=O)N1CCN(c2ccccc2)CC1 | inconclusive: 20.6 µM [cytotoxic, partial curve, poor fit]
Cc1cccc(Cn2c(-c3cccs3)nc3ccccc32)c1 | inconclusive: 8.2 µM [cytotoxic, partial curve]
CC(=O)C1=C(O)C(=O)N(CCc2c[nH]c3ccccc23)C1c1ccc(C)cc1 (stereo not given) | inconclusive: 29.1 µM [rising, single point]
